Test results: article PMC5179076

Test system: RNA polymerase RpoD (sigma70) holoenzyme (Escherichia coli K-12 W3110 (type-A))
Assay: EMSA
Conditions: 0-1000 nM RNAP, affinity almost the same as riRNA promoter probe; EMSA: 50 mM Tris-HCl pH 7.8 (37 C), 50 mM NaCl, 3 mM Mg acetate, 0.1 mM EDTA, 0.1 mM DTT, BSA, 37 C 30 min, probe 10 nM (Methods) or 50 nM; native protein; probe letters rebuilt from the primers and the genome

Does “CATCCTTATTTTTCGCCCGCATTGTAACGAAAACGTTTGCGCAACGCTCGCGAATTTTTCTCTTTCAATGGTGATCACAATTTTGACTGTGGTTACCGTGGGCAAAATACAGAAATTACATTGATGATTGTGGATAACTCTGTGCGTAAAAAGGTATAAAGCGGGCTTTTGCTGGGGAATGCAGCAGTCAGTCATTTTTCTGCAATTTTTCTATTGCGGCCTGCGGAGAACTCCCTATAATGCGCCTCCATCGACACGGCGGATGTGAATCACTTCACACAAACAGCCGGTTCGGTTGAAGAGAAAAATCCTGAAATTCAGGGTTGACTCTGAAAGAGGAAAGCGTAATATACGCCACCTCGCGACAGTGCGCTAAAGCGCGTCGCAACTGCTCTTTAACAATTTATCAGACAATCTGTGTGGGCACTCGAAGATACGGATTCTTAACGTCGCAAGACGAAAAATGAATACCAAGTCTCAAGAGTGAACACGTAATTCATTACGAAGTTTAATTCTTTGAGCATCAAACTTTTAAATTGAAGAGTTTGATCATGGCT (double strand) [Probe G1 (rrnD major promoter P1-P2)]” bind?
Result: binds

For at least one entry, the source does not settle the construct or the ends of the probe.
